No constants are given. Whether binding was seen depends on the method and setting.
Molecular target: ClfA35-559 from pETM-10 (for ELISA) (S. aureus) (UniProt Q53653)
Test: ELISA; plates coated with 1 μg/well ClfA in PBS overnight at 4 °C, blocked with 2% BSA in PBS-T; AnnexinA2 or BSA (0–2000 nM) 1 h at RT; detected with anti-AnnexinA2 antibody and HRP secondary; triplicate; both purified

Sequences of proteins named here, by UniProt entry; tags and fusion partners are left off. Residues count along the entry.
UniProt Q53653, residues 35-559: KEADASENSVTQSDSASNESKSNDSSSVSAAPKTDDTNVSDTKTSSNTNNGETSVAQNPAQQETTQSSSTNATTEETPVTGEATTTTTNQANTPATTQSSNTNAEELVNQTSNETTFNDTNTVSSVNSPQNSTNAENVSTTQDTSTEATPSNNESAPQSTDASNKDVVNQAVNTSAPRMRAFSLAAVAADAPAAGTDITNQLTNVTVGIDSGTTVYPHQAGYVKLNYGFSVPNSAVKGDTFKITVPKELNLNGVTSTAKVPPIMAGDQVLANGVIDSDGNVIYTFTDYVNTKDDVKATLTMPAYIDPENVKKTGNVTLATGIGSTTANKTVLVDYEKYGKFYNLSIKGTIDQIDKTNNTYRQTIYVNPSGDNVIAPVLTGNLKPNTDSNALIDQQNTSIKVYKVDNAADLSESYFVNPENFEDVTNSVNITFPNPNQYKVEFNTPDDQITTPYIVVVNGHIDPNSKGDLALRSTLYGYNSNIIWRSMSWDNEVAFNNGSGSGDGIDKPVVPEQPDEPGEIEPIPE
UniProt P02769, residues 25-607: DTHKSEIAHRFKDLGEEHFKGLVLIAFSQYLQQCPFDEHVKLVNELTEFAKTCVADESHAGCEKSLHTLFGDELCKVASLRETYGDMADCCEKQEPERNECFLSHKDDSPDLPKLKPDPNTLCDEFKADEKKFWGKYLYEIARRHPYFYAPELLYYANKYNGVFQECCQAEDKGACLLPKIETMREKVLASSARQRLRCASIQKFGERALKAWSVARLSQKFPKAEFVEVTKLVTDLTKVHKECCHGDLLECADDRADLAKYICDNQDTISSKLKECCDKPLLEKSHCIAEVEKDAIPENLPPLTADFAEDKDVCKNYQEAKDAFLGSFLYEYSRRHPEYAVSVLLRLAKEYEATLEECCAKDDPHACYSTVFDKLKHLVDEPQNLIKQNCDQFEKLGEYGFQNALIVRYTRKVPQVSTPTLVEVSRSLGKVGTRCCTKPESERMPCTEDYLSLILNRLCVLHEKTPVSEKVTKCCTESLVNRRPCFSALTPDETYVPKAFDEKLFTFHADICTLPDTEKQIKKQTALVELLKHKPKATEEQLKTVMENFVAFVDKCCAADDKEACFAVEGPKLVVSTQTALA

In the case of “Bovine serum albumin (BSA) (from UniProt P02769 25-607)”, the binding is reported as “no binding (tested: 0–2000 nM)”.
